Experimental data published in patent publication US4352880A (priority 1979, dated 1982).
At least one structure is not confirmed: it was looked up by name or label, or the drawing left a doubt.

Test system: S. typhimurium TA1535

CCOS(C)(=O)=O [EMS, ethyl-methane-sulfonate]
.tau.1/2 Parametrically: 14.83 h
